Some of the results follow.
B1: il2ra_site2_2erj_normal_mot_b021e2f97af61d757b726e3a8bae34a4_0001_af2_000000105_0001_17_31_H_._HHH_b1_04752_0001_0000500018_0000001_0_af2pred_0001_af2pred (protein)
chain: SSSSSDREELERFVEELVEEFGLDEEDKELLEEAVEDALKEGLDEKFIRIFLRKSAKLLQSSSSS
B2: il2ra_site2_2erj_sap_29_mot_ems_p1-14H-GABBL-16H-GABBL-15H_0014_0001_0001_0001_000000124_0001_40_55_H_._HHH_b1_00287_af2_0001_0000200003_0000001_0_0001 (protein)
chain: SSSSSDSEEAARAFAQEAFENNDREALEYFLKFVEKSAEMDGDPRLEEVAELIRELLEELSSSSS
B3: il2ra_site2_2erj_sap_27_mot_e63b485c515f68499f2ec453e144b8a1_0001_af2_000000187_0001_54_65_H_._38c1efbf0224450141ac84ec5489883f_0001_af2_0001_0000400018_0000001 … (protein)
chain: SSSSDEEEERIRELAEEAKRIDDLHEVYELLNEMTRIASEANDQELVELVAELFEEIAELFSSSS
B4: il2ra_site2_2erj_sap_20_mot_HHH_b1_07204_000000037_0001_41_57_H_._41b5e8afe8ae26091a972e0beeba0202_0001_0001_0002000102_0000001_0_0001_af2pred_0001_1_af2pred_sw … (protein)
chain: SDEENLAAFVRLLAEHLGVPSVEVEVENNRLHVEVNGDDEAAKLVILAAKSAAEAHGVEFTFETE
B5: il2ra_site1_3nfp_sap_18_mot_HHH_b1_01736_000000293_0001_24_39_H_._HHH_b2_01871_0001_0000300019_0000001_0_0001 (protein)
chain: QDKALEWFVEDAVKQNSPRALKKFLEDLERMFGDPEEAERFLEELLEAVLGDPEEVERLLKLAKE
B6: il2ra_site2_3nfp_normal_mot_HHH_b1_02297_000000279_0001_41_58_H_._HHH_b2_04619_af2_0001_0000200005_0000001_0_af2pred_0001_af2pred_1_swapped (protein)
chain: SSSSSEDEERVRELLEEAEKIEDEHEVFAILSEALEIAFKSKNEELLREIREVALELRRRSSSSS
B7: il2ra_site1_3nfp_normal_mot_HHH_b1_01335_af2_000000105_0001_39_53_H_._HHH_b2_08384_0001_0000100004_0000001_0_af2pred_0001_af2pred_swapped (protein)
chain: SSSSDEEIREEVEELLERAKHISDAKEVQELLREALRLAKELRDPELRRLIQEVMRELAKSSSSS
B8: il2ra_site1_2b5i_sap_8_mot_HHH_b2_07226_000000072_0001_42_55_H_._HHH_b1_03995_0001_0000400027_0000001_0_0001 (protein)
chain: SSSSDEEDEEVDELFREASELWRNGNPEEARRVLEEAEKLAREINDPKAEEDLRRFLEMLSSSSS
B9: il2ra_site2_3nfp_sap_21_mot_HHH_b1_06586_000000201_0001_1_18_H_._HHH_b2_00107_0001_0000200010_0000001_0_0001_af2pred_0001_1_af2pred_swapped (protein)
chain: SSSSSSDLEEEAHELVEEAKEKADEHQRFALRAAELSAKILGDPKYFEDALHAARLILSSSSSSS
B10: il2ra_site2_2erj_normal_mot_HHH_b2_02500_af2_000000175_0001_19_35_H_._HHH_b2_04507_af2_0001_0000500005_0000001_0 (protein)
chain: SSSSNEELRRLYELANRVLHAEARGDEEELQRLLEEAKELAEKLQSENILELLEQLERLLSSSSS

Molecular target: il2ra, P01589
Experiment: yeast display titration

Apparent Kd, inactive:
B1 no binding seen, B2 no binding seen, B3 no binding seen, B4 no binding seen, B5 no binding seen, B6 no binding seen, B7 no binding seen, B8 no binding seen, B9 no binding seen, B10 no binding seen

Reference: article PMC10163288
